From PubChem BioAssay AID1508600 (Functional Genomics Laboratory (NCATS/FGL), 2020)
The whole screen tested about 53,000 sequences, of which about 3,700 (7%) were called active.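 How the source made its calls: active means gene knockdowns whose robust z-score for IL-1 alpha signal is at least 2 or at most -2, so actives lie on both sides; inactive means the rest.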 The list shows a part of the results.

assay: Components of the Cytosolic LPS Sensing Pathway: Gene Identification via Genome-wide siRNA Screen; conditions: RAW264.7 macrophages, IL-1a HTRF, actives lie on both sides, screened at 100 nM (by protocol), cells primed 5 h with Pam3CSK4 first;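 further: robust z of the log signal after scaling to non-targeting control siRNA wells of the plate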
Method in brief: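 Three distinct siRNAs per gene were tested singly at 100 nM in RAW264.7 macrophages. Following Pam3CSK4 priming and 24 hour LipidA transfection, IL-1a secretion was read by HTRF.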

| Sequence | z-score |
| --- | --- |
| GGACUUACCUUUAACCAACTT against Slc30a4 | inactive: 0.42 |
| GGGAUGCUCUGAACAUUGATT against Anxa2 | active: 3.22 |
| GCCAACUGAAGAUCCGUGUTT against Pgm5 | inactive: 1.54 |
| GGUGGUUGUAAGUAAGCUGTT against Lgals3 | inactive: -0.327 |
| GCUAGGUAUCUAAGGAUAUTT against Fig4 | inactive: -0.579 |
| GGAGUUCUGCAUCUACAACTT against Syngr1 | inactive: 0.0453 |
| GGGAAGACAACAAUUCUAUTT against Arf1 | inactive: 1.76 |
| GGAUGGACUUCUGUAUCACTT against Cdh17 | inactive: 0.97 |
| GCUAGAGUCCAUAAACAAUTT against Olfr1148 | inactive: -0.0654 |
| GGACAGCUCUCAUCUGAUGTT against Larp4b | inactive: 0.409 |
| GGCCAAGGAGAGCAUUCGATT against Vps4a | inactive: -0.769 |
| GGCUUUUGUCAAACAGCAUTT against Ins1 | active: -2.9 |
| CCUGUACUCUACCUCACACTT against Nol4l | inactive: -1.34 |
| GCAAUAAGGUGAAGUCAGATT against Mbd2 | inactive: -0.834 |
| GUACCUCUACUAUUCCUUUTT against Krtap5-2 | inactive: -0.13 |
| GGAAGUAACAUGCUUCUAGTT against Ccdc42 | inactive: 0.75 |
| GGAACUGGGUUCAUCCACATT against Snrpb2 | active: -2.02 |
| GGCAGACAAGGAUUCCUUGTT against Mrpl38 | inactive: 0.626 |
| GGCUUUUCGUUGUAAAUCATT against 9930111J21Rik2 | inactive: 0.735 |
| GGCAUUUGAGAGACACAGGTT against A930104D05Rik | inactive: -1.65 |
| GGUUGCAUCUCUAGCUCCATT against Krt32 | inactive: 0.229 |
| GGAAAAUGACAGCGAAGAGTT against Helq | inactive: -0.34 |

Looked up above:
GGACUUACCUUUAACCAACTT against Slc30a4 | z-score: inactive: 0.42
GUACCUCUACUAUUCCUUUTT against Krtap5-2 | z-score: inactive: -0.13
GGAUGGACUUCUGUAUCACTT against Cdh17 | z-score: inactive: 0.97
GGAAGUAACAUGCUUCUAGTT against Ccdc42 | z-score: inactive: 0.75
GGGAUGCUCUGAACAUUGATT against Anxa2 | z-score: active: 3.22

Following part

| Sequence | z-score |
| --- | --- |
| GGAUUCUCCGCACAGUUGGTT against Vps37b | inactive: 0.977 |
| CCAUAACGUAAGGCAUAUATT against Ghsr | inactive: 0.505 |
| CCCUUUAGAGGAAGUGAUATT against Gatm | inactive: -1.82 |
| GGGCUGAUGUGGGCUAAAUTT against Tmem38a | active: 2.47 |
| GGAAGUGAAUAAAUUCCUUTT against Crppa | inactive: -1.3 |
| GCACAAUGGUGUUAAGUCATT against Ado | active: 2.3 |
| GCACCAAUACAUUUGGACCTT against Nabp1 | inactive: 1.74 |
| GAACAGCAGAAUCUCGGCUTT against Cacng6 | inactive: -0.281 |
| GGGUCACUUGGAUUGUGGATT against Tmx2 | inactive: -0.0195 |
| GGCUCCUACCAAUCUCACUTT against Calcr | inactive: -0.548 |
| GGUUCUCCAGCAAGUGGAUTT against Mlh3 | inactive: 0.0388 |
| GGCCUGAAGCAGCUUAUCUTT against Chad | inactive: -1.56 |
| GGCCAAUGGGUUAUCUGGATT against Shisa5 | inactive: -0.0374 |
| CCGUGGAUUGUGGAAUAAUTT against Xpnpep3 | inactive: -1.39 |
| GGUUUGGAGGGACGCAAUATT against 2900005J15Rik | inactive: -0.0611 |
| GGUUUACCUUUAUGCAACATT against Tdrd12 | inactive: -1.03 |
| GGUUCUGGAAGAAGAAAAGTT against Irgq | inactive: 1.31 |
| GCUUACAGAUCAACUGAAGTT against Chst9 | inactive: 0.018 |
| GGGCAAUUCCAUGAAGCUGTT against Scn3b | inactive: -1.36 |
| GAAGUCUGCCAAAUUAAUGTT against Zfp182 | inactive: 0.342 |
| GGUGGGAAGAUAGAUAAAATT against Mamstr | active: 3.28 |
| GCAAUGGACCCAACUCAAGTT against 2810032G03Rik | inactive: 0.108 |

| Sequence | z-score |
| --- | --- |
| GGACCAGAAACCGUGAUAATT against Immp2l | active: 3.96 |
| CCUGGAACGAAUAUUUGUGTT against Eml6 | inactive: 0.53 |
| GACCUGAAUAAAGACUGUCTT against Cort | inactive: 0.697 |
| GGCCGAAGACCCUAAUUUATT against Cmtm7 | inactive: -0.373 |
| GGACUAGAUAUCACUUUUUTT against Oga | inactive: -0.0184 |
| CGGAGUGAAACUACUCAUUTT against Ckb | inactive: -0.773 |
| GCACUGAUGACGUGCAGAUTT against Rps5 | inactive: 1.24 |
| GGCACAAGCAGGAGAUAAATT against Serpinb2 | active: 2.05 |
| GCUAACAGGUCAUUUAUCCTT against Tmem123 | inactive: -0.245 |
| GGUAGGACUAACAAUAAAATT against Gpr4 | inactive: -0.0158 |
| GGAGAACACCAUCAGGUUUTT against Tnfrsf14 | inactive: -0.121 |
| CGGCUCACUAGGAUUAUACTT against Dnajc5g | inactive: 0.749 |
| GCUCAUUCGUCCUCACAGUTT against Olfr312 | inactive: -1.11 |
| GGAACCCUUUUCAAAAGAGTT against Bclaf3 | inactive: 0.112 |
| GGGAAUCUGGAGUGUCUGATT against Uaca | inactive: 0.358 |
| GCUGAUAGACUCACAGAGGTT against Midn | inactive: 0.0964 |
| CCAAGUUACAGGAACAAGUTT against Olfr1504 | inactive: 0.14 |
| GCCAUUGGUACCAUAACAUTT against Tekt3 | inactive: 0.147 |
| CCCACCUAUGGGCUAUUAUTT against Cdip1 | inactive: -1.18 |
| GGCUUGUCGUCCUGGUGUATT against Rprd2 | inactive: 0.219 |
| GGUCAAAACCAUCUACCGCTT against Rab3a | inactive: 0.479 |
| GGUAACUCCAUACUAUAAUTT against Pcdhb4 | inactive: 0.338 |

| Sequence | z-score |
| --- | --- |
| GGAAUCCUUUUCUUUCUAATT against Slc13a1 | inactive: 0.0492 |
| GGAUGGCAUAGUUCUUGGATT against Psmb7 | inactive: -0.756 |
| GCUACUUAAAUACAUCCGCTT against Pdpk1 | inactive: 0.344 |
| GGAGCCUUUACCAUUGACUTT against Osmr | inactive: -0.98 |
| GGAAAAGAAGUUUAAACGGTT against Svs6 | inactive: -0.413 |
| GGUCAACAAGUAUAUCAACTT against Tlcd1 | inactive: 0.226 |
| GGAUGUCAUCGAGGAAUACTT against Rps12 | inactive: -0.0791 |
| GCGGACCACCAUUAUCCUUTT against Polr3gl | inactive: -0.765 |
| GGACAGGUACAGCAUCAACTT against St3gal5 | inactive: -0.571 |
| GGCACACACAAAGUAUUUCTT against Pxdc1 | inactive: -1.09 |
| GGCUGGAAAGAGACUUUCCTT against Acsm3 | inactive: -0.0815 |
| GGACCUAGACGAUGUCAUGTT against Lrrc4b | inactive: 0.57 |
| GCCACAAUGCUAGAAGAGATT against Apex2 | inactive: -0.0295 |
| CCAUCUAUCAACUUCUACATT against Sat1 | inactive: -0.34 |
| GGAAGAAGCCUUUCAGCAUTT against Cenpa | inactive: -1.39 |
| AGUGCGACAAGGAGGUGUATT against Crip1 | inactive: 1.17 |
| GGAGAUCAUCUUUUCUCAUTT against Slc50a1 | inactive: -0.668 |
| GGAGGUCCCAGUCAUUAUCTT against Gdap1l1 | inactive: -0.97 |
| CGGAAUUUCCACAGCUGUATT against Gde1 | inactive: 0.0422 |
| GGCUUCAGACCCUCAAAAGTT against Spef2 | inactive: -0.00203 |
| GGAUCUUGGGUUGAUAUUUTT against Acsl4 | inactive: -0.524 |
| GGAAGAAUUACAAAGGAUATT against Cnot4 | inactive: -0.974 |

Reprinted at random: three records from the list

| Sequence | z-score |
| --- | --- |
| AGUGCGACAAGGAGGUGUATT against Crip1 | inactive: 1.17 |
| GGAGAUCAUCUUUUCUCAUTT against Slc50a1 | inactive: -0.668 |
| GGAAUCCUUUUCUUUCUAATT against Slc13a1 | inactive: 0.0492 |

The results go on:

| Sequence | z-score |
| --- | --- |
| GGAACUUAUCCUUCAUGGATT against Olfr714 | inactive: 1.63 |
| GCCUUACAAUUUGUUCUACTT against Dsc1 | inactive: 1 |
| GGCAGGUGUGGCUUUCUUCTT against Gpsm1 | inactive: -0.0254 |
| GCCUUUACCCAAAUUAUCATT against Defb4 | inactive: 0.567 |
| CGUUCUACAACAAAUGGCUTT against Slc35c2 | inactive: -1.31 |
| GGAGGAAUCUUGGGUCUGATT against Gas2l2 | inactive: 0.0842 |
| GGAAAUGAAAAAGUUCUGGTT against Sppl2a | inactive: 0.583 |
| GCACGUACCAGUAUCCAGATT against Dnase1l2 | inactive: 0.613 |
| CGAUUCCAACAAGAAAGUGTT against Togaram2 | inactive: 0.649 |
| GCUCUAGAUGUCAACCUGATT against Larp1b | inactive: 0.683 |
| GGCCACAGAGCCAAAGAUUTT against Cdca7 | inactive: 0.808 |
| GGAGAUGACUCUUUCUGUATT against Olfr301 | inactive: 0.675 |
| GGAUCUCUGGGAAAUCUGCTT against Tap2 | inactive: -0.894 |
| GCAGCUGAUCACUGGAAAGTT against Tuba3a | inactive: -0.357 |
| GGAACCUACCUUUGACCCATT against Tbc1d17 | inactive: -0.283 |
| GGUUAUUCUUCUGGUGGUGTT against Olfr1234 | inactive: 0.494 |
| GGUUCUGGAAGUCUAAGAATT against Zmynd11 | inactive: 1.2 |
| GGCUGUGAACAAAUUUGUATT against Megf6 | inactive: -0.109 |
| GCAGCUAGUCUUUUAGGUATT against Nasp | inactive: 1.58 |
